These results are taken from PMC7746826.

Chains of the proteins cited; added tags and fusions are not shown. Lines headed by an entry give the natural chain unless they say otherwise; changes in a name come on top.
UniProt P54646: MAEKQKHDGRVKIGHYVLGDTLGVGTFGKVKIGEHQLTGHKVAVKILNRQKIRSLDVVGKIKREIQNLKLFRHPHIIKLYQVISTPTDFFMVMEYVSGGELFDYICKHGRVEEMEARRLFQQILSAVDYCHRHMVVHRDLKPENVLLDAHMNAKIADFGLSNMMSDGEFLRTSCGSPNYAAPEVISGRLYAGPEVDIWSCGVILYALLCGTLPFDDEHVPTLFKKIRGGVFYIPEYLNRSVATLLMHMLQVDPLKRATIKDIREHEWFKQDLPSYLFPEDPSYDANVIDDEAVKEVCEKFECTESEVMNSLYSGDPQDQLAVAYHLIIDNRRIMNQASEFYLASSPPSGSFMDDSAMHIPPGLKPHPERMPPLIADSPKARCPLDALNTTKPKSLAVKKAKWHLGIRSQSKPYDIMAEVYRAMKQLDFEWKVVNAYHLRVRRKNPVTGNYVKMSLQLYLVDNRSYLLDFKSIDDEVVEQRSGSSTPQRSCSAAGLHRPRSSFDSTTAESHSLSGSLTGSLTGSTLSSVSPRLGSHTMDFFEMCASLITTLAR
UniProt Q8R455: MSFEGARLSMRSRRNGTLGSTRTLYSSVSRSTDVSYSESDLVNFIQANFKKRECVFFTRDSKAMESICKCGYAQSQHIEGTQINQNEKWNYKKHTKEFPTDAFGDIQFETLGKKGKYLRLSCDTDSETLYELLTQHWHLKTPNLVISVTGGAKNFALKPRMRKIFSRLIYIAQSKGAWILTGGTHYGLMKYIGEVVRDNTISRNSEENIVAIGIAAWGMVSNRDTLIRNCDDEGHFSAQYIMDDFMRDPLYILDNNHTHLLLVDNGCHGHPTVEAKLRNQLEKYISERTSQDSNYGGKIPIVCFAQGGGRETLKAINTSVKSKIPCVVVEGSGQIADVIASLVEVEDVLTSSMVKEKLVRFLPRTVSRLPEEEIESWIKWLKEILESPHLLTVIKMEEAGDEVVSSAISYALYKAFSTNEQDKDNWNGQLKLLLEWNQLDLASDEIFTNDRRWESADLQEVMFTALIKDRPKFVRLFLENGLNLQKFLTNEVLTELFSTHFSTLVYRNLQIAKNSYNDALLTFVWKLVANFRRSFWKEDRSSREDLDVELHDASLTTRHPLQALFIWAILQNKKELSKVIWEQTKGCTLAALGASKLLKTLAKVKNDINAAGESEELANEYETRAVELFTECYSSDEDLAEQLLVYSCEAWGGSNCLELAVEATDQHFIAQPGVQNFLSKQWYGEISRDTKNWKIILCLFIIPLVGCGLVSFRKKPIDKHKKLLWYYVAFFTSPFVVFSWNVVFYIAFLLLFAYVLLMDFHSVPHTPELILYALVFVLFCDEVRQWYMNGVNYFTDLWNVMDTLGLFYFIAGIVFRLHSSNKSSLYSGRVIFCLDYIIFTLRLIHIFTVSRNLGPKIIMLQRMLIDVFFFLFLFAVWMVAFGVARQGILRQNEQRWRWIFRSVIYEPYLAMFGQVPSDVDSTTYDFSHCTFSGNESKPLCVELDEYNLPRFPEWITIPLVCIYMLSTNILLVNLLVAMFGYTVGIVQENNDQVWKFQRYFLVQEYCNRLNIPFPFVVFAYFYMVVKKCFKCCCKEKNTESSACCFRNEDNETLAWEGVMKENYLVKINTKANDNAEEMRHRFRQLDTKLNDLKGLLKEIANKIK

No constants are given. Whether binding was seen depends on the method and setting. Binding seen in cells or lysates may run through a third protein. Some entries that bind do so weakly or less than the wild type.

Experiment [1] addresses Flag-tagged PRKAA2 (protein kinase AMP-activated catalytic subunit alpha 2, AMPKa2, Flag-AMPK) (human) (UniProt P54646). Put plainly: co-IP; MCF7 cells cotransfected, lysed 48 h after transfection in 50 mM Tris/HCl pH 7.5, 150 mM NaCl, 2 mM EDTA, 1% NP-40; anti-GFP or anti-Flag antibody with Protein A/G PLUS-agarose, 2 h at 4°C; western blot for the other tag. (In general: A western blot detects proteins with antibodies after separation by electrophoresis.)

For experiment [2], the target named is GFP-AMPK (human) (UniProt P54646). Described as above.

For “green fluorescent protein-tagged TRPM8 (GFP-TRPM8) (from UniProt Q8R455 1-1104)”, in experiment [1], the binding entry is given as “binds”.
As to “Flag-tagged cytosolic C-terminus of TRPM8 (Flag-M8-C) (from UniProt Q8R455 980-1104) (domain or fragment)”, the binding result in experiment [2] was “binds”.
